# Primary screen of a compound library

Chains of the proteins cited; added tags and fusions are not shown.
UniProt E9BF75, entry or part of it: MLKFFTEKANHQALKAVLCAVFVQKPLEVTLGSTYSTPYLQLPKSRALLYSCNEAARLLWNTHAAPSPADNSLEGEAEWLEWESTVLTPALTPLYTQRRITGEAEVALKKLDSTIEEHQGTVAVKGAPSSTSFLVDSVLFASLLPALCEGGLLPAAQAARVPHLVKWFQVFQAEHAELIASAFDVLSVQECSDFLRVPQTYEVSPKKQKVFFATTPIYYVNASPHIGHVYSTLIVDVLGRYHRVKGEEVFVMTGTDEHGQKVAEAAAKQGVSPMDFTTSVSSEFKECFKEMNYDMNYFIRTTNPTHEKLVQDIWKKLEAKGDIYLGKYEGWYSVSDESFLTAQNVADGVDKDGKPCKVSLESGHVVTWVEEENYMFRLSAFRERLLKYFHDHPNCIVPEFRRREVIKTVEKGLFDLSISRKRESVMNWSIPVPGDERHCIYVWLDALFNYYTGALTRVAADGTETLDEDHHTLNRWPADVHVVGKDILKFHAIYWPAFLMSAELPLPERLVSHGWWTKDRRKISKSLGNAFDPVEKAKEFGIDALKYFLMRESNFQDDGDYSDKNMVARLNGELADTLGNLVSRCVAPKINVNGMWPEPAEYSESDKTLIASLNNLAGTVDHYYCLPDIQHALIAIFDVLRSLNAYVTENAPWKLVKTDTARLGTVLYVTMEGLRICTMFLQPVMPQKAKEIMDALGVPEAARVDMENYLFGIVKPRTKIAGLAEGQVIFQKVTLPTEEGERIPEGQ

Results are percentages, as filed.
The record does not define 0% and 100%; most values in the screen are far below 50% and negative numbers occur (in some assays of this library far below -100).
The compounds are a random part of those screened.
A dash means the value is not listed here; it may have been measured.

Mtb heat-shock: 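Assay on Mycobacterium tuberculosis, filed only as a heat shock assay from Cornell; the read-out is not stated. The concentration is filed as 10 mM, unlikely as a test dose, so the dose is not known. Direction is inferred from retests: higher values go with stronger inhibition. Of about 69,000 compounds tested this way, about 930 (1.4%) reached 50% or more in at least one test.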
Mtb growth Cornell: 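Whole-cell assay for inhibitors of Mycobacterium tuberculosis growth, labelled Cornell in the record; the read-out is not stated. The concentration is filed as 10 mM, unlikely as a test dose, so the dose is not known. The record gives no direction; compounds strong in two other growth screens of this library score well above the rest, so higher reads as stronger inhibition. Size under these conditions: about 53,000 compounds, about 900 of them at 50% or above in at least one test.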
LdMetRS: 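Methionyl-tRNA synthetase (putative), Leishmania donovani (UniProt E9BF75). Primary screen of methionyl-tRNA synthetase; the read-out is not stated. The test concentration is not given. The values are filed as inhibition. About 68,000 compounds were tested under these conditions; 0.035% (about 24) showed 50% or more at least once.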

| # | Compound | Mtb heat-shock | Mtb growth Cornell | LdMetRS |
|---|---|---|---|---|
| 1 | `Cn1cc(CCNCc2cc(Br)c3c(c2)OCO3)cn1` | -22.25 | - | 15.26 |
| 2 | `CCN(C(C)=O)C1CCN(c2nccc(CCC(F)(F)F)n2)C1` (stereo not shown) | -2.533 | 3.134 | 15.03 |
| 3 | `CCC/N=c1/c(NC(=O)NCCCOC)c(O)oc2ccccc12` | -4.523 | -33.59 | -1.737 |
| 4 | `Cc1cc(C)n(CC2CN(Cc3cscn3)CCO2)n1` (stereo not shown) | 5.543 | - | 8.163 |
| 5 | `CN1CCN(Cc2ccccc2Oc2ccc(C(N)=O)cn2)CC1` | 9.318 | -5.056 | 13.04 |
| 6 | `CCn1nc(C(C)C)cc1C(=O)NCC1CCCN(c2ccccn2)C1` (stereo not shown) | 10.6 | 25.18 | 17.14 |
| 7 | `O=S1(=O)COCCN1CCOc1ccccc1` | -0.5575 | -5.193 | 10.07 |
| 8 | `Cc1[nH]c2nc(CNc3ccccc3Cl)nn2c(=O)c1C` | 20.48 | 13.95 | 17.83 |
| 9 | `CSCC(C)N(C)C(=O)c1nn(-c2ccc(F)cc2C)cc1O` (stereo not shown) | 3.84 | 19.96 | 9.485 |
| 10 | `CC(C)n1cnnc1CN1C(=O)CCc2ccccc21` | -11.02 | - | 11.2 |
| 11 | `[H][C@@]12CCN(Cc3ccoc3)C[C@@]1([H])O[C@@H](c1ccnc(C(C)C)n1)C2` | 16.75 | 19.66 | - |
| 12 | `Cc1nc(O)c2nnn(C[C@H]3CCCN3C(=O)C(C)(C)C)c2n1` | -9.199 | - | 18.53 |
| 13 | `CC(C)OCCN1CCN(C(=O)c2cccc(-n3cccn3)n2)CC1` | -3.866 | 18.45 | 8.865 |
| 14 | `CCn1nc(C)c2c1cnn2CC(=O)Nc1ccc(OC)cc1C` | 13.94 | -7.719 | 7.508 |
| 15 | `CC(C)c1[nH]c2ncccc2c1CN1CCN(S(=O)(=O)N(C)C)CC1` | -5.556 | 17.78 | 13.3 |
| 16 | `O=C(O)C(F)(F)F.[H][C@]12CC(=O)N(CC3CC3)[C@@]1([H])CCN2Cc1cccc(C)n1` | -9.975 | 4.252 | - |
| 17 | `Cc1noc(C)c1CN1C[C@@H](C(=O)O)[C@H](c2ccccc2)C1` | 9.145 | 23.54 | 14.52 |
| 18 | `C=C(C)CN1CCC(C(=O)c2cc(F)ccc2F)CC1` | -3.277 | - | 25.7 |
| 19 | `O=C(O)C(F)(F)F.[H][C@@]12CCCO[C@]1([H])[C@H](OCC)CN2S(=O)(=O)c1cn(C)cn1` | -33.61 | -6.049 | - |
| 20 | `O=C(O)C(F)(F)F.O=C(O)C(F)(F)F.O=C1COC2(CCN(Cc3cccs3)CC2)CN1c1cccnc1` | -29.23 | 23.42 | - |
| 21 | `Cc1cc(C(=O)NC2CCN(c3nnc(C)c(C)c3C#N)CC2)no1` | -37.99 | -5.712 | 10.34 |
| 22 | `O=C(NC1CCOC1)c1cccc(S(=O)(=O)NCCCc2ncc[nH]2)c1` (stereo not shown) | 12.79 | 8.043 | 11.37 |
| 23 | `CCOCC(=O)NCc1cc(C2CC2)n(C2CCCC2)n1` | 13.97 | 6.198 | 6.475 |
| 24 | `CNC(=O)[C@@H](c1ccccc1)N1CCC[C@H]1C(=O)NCc1cccnc1` | - | - | 3.846 |
| 25 | `O=C(O)C(F)(F)F.[H][C@]12C[C@H](C(=O)NC)N(S(C)(=O)=O)[C@@]1([H])CN(Cc1csc(C)n1)C2` | 2.273 | -35.74 | - |
| 26 | `Cc1cnc(N2CC[C@@H]3CN(Cc4ccncc4)CCO[C@@H]3C2)nc1` | - | - | 8.029 |
| 27 | `CN(C(=O)Nc1nncs1)C1CCN(c2ccccc2Cl)C1=O` (stereo not shown) | 17.85 | 8.122 | 13.31 |
| 28 | `Cc1ccc(CNC2(Cc3cc(-c4ccccc4)on3)COC2)o1` | -14.64 | 33.8 | 11.86 |
| 29 | `CCn1cc(C(=O)N2CCCC(c3noc(C)n3)C2)cn1` (stereo not shown) | 2.972 | - | 8.743 |
| 30 | `O=C(c1ccco1)N1CCC(n2nc(-c3ccco3)ccc2=O)CC1` | 18.57 | 11.6 | 10.94 |
| 31 | `CC(C)Nc1nc2c(cc1C(=O)NCC1CC1)CCN(CC1CC1)CC2` | - | - | 9.677 |
| 32 | `COCCN1C(=O)CC(N2CCN(c3ccc(F)cc3)CC2)C1=O` (stereo not shown) | -16.16 | 4.981 | 4.93 |
| 33 | `Cc1ccc(N2CCN(C)c3ncccc3C2)nn1` | - | - | 18.48 |
| 34 | `Cc1cn2c(n1)CCC(NC(=O)c1nc(C)ncc1Cl)C2` (stereo not shown) | -10.76 | - | 20.14 |
| 35 | `CCOc1cc(C(=O)N2CCCC(n3cncn3)C2)ccc1C` (stereo not shown) | 6.243 | 2.268 | 4.127 |
| 36 | `CCC(C(=O)NCc1csc(N2CCOCC2)n1)n1cccn1` (stereo not shown) | 12.94 | 5.292 | 8.397 |
| 37 | `N#Cc1cccc(CNC(=O)Nc2cccnc2N2CCCC2)c1` | 8.173 | - | 17.48 |
| 38 | `CN(Cc1nnc2n1CCC2)C(=O)c1ccc2c(c1)CCO2` | -1.21 | - | 13.8 |
| 39 | `COCCN(Cc1ccc(F)cc1Cl)C(=O)c1ccccn1` | -26.99 | -17.47 | 5.435 |
| 40 | `CN(Cc1cscn1)Cc1cc2c(cc1Br)OCO2` | 5.113 | 7.415 | 13.07 |
| 41 | `Cc1ccc(N2CCCN(C(=O)CC3C=CCC3)CC2)nn1` (stereo not shown) | -6.12 | 37.92 | 25 |
| 42 | `Cc1cc(N2CCC(N3CCOCC3)C2)n2nc(C)c(C)c2n1` (stereo not shown) | -24.26 | 11.46 | 14.89 |
| 43 | `Cc1cc(C)n(CCC(=O)N2CCCCC2c2nccs2)n1` (stereo not shown) | -17.1 | -9.123 | 2.356 |
| 44 | `CN(C)C(=O)CNC(CC(F)(F)F)c1ccc(F)cc1` (stereo not shown) | -18.41 | 6.243 | 6.069 |
| 45 | `N#CC1(NC(=O)c2ccn(-c3ccccc3Cl)n2)CCSC1` (stereo not shown) | -38.34 | - | 8.271 |
| 46 | `CC(CNC(=O)Nc1cn[nH]c1)N1CCCC1` (stereo not shown) | -3.073 | - | 20.99 |
| 47 | `Cc1nc(O)cc(CN2C[C@H](NS(=O)(=O)N(C)C)[C@@H](C3CC3)C2)n1` | -156.4 | - | 18.43 |
| 48 | `Cc1occc1C(=O)N1C[C@H](Oc2ccccn2)[C@H]2OCCC[C@H]21` | - | - | 2.747 |
| 49 | `O=C(c1cscn1)N1CC[C@@H]2[C@@H]1CCN2c1ccccn1` | - | - | 19.71 |
| 50 | `Cc1[nH]c(-c2ccccc2)nc1C(=O)N1CC[C@H](CO)[C@@H](O)C1` | 10.75 | -4.768 | 4.514 |
| 51 | `Cc1cc(NC(=O)CN2CCOC(CN(C)C)C2)n(C)n1` (stereo not shown) | 10.78 | 9.565 | 7.551 |
| 52 | `COc1c(C)cnc(CN(C)C(=O)c2ccc(C3CCCO3)s2)c1C` (stereo not shown) | 9.624 | 29.33 | 18.66 |
| 53 | `Cc1ccc(CN2CC3(CCN(C(=O)c4cscn4)C3)C2)o1` | - | - | 20.62 |
| 54 | `O=C(NCC1CCS(=O)(=O)C1)N(Cc1ccncc1)C1CC1` (stereo not shown) | 10.02 | 15.16 | 11.58 |
| 55 | `CCOC(=O)N1CCCC2(CCCNC2)C1.Cl` (stereo not shown) | 14.31 | - | - |
| 56 | `O=C(O)C(F)(F)F.[H][C@@]12C[C@@H](C(=O)NC(C)C)C[C@@]1([H])N(Cc1cccs1)CCO2` | -4.502 | 17.11 | - |

Some entries from above, unchanged:

| Compound | Mtb heat-shock | Mtb growth Cornell | LdMetRS |
|---|---|---|---|
| `Cc1cnc(N2CC[C@@H]3CN(Cc4ccncc4)CCO[C@@H]3C2)nc1` | - | - | 8.029 |
| `CCOC(=O)N1CCCC2(CCCNC2)C1.Cl` (stereo not shown) | 14.31 | - | - |
| `Cc1cc(C)n(CCC(=O)N2CCCCC2c2nccs2)n1` (stereo not shown) | -17.1 | -9.123 | 2.356 |
| `Cc1ccc(N2CCN(C)c3ncccc3C2)nn1` | - | - | 18.48 |
| `CCn1nc(C)c2c1cnn2CC(=O)Nc1ccc(OC)cc1C` | 13.94 | -7.719 | 7.508 |

Data taken from ChEMBL document CHEMBL3988442, “University of Dundee, Small-Polar-MMV Screening Library” (2021).